Assay results reported in patent US12723053B2, “KRas inhibitors” (ELI LILLY AND COMPANY, priority 2023, dated 2026).
Some of these results come from one statement about several compounds together.

Experiments:
KRas G12D mutant = target: T1, KRas G12D mutant (Homo sapiens, UniProt P01116, G12D); assay: PANC-1 Cellular Active RAS GTPase ELISA (KRas G12D Mutation); type: cell-based; conditions: PANC-1 cells, 2 hours incubation; read-out: relative IC50, inhibition of constitutive RAS GTPase activity (KRas G12D mutant)
T1 construct: host or cells: PANC-1 human pancreatic ductal adenocarcinoma cells

WT KRAS Amplification = target: T2, WT KRAS Amplification (Homo sapiens, UniProt P01116); assay: Cellular Phospho-ERK AlphaLISA assay, MKN45 cells; type: cell-based; conditions: 2 h incubation; cell line for KRAS WT not given; read-out: relative IC50, reduction of phosphorylated ERK-1/2, cells expressing KRAS WT
T2 construct: endogenous in cells; host or cells: MKN45 human gastric cancer cells

KRAS G12V = target: T3, KRAS G12V (Homo sapiens, UniProt P01116, G12V); assay: Cellular Phospho-ERK AlphaLISA assay, SW620 cells; type: cell-based
T3 construct: endogenous in cells; host or cells: SW620 human colorectal cancer cells

KRAS G12D = target: T4, KRAS G12D (Homo sapiens, UniProt P01116, G12D); assay: Cellular Phospho-ERK AlphaLISA assay, HPAC cells; type: cell-based; conditions: 2 h incubation; read-out: relative IC50, reduction of phosphorylated ERK-1/2, cells expressing KRAS G12D
T4 construct: endogenous in cells; host or cells: HPAC human pancreatic cancer cells

KRAS G12C = target: T5, KRAS G12C (Homo sapiens, UniProt P01116, G12C); assay: Cellular Phospho-ERK AlphaLISA assay, NCI-1373 cells; type: cell-based; conditions: 2 h incubation; read-out: relative IC50, reduction of phosphorylated ERK-1/2, cells expressing KRAS G12C
T5 construct: endogenous in cells; host or cells: NCI-1373 human lung cancer cells (so in the source); probably NCI-H1373

NRAS = NRAS (Homo sapiens, UniProt P01111); assay: Cellular Phospho-ERK AlphaLISA assay, MEF-NRAS cells; type: cell-based, mouse; conditions: RAS-less MEFs expressing NRAS only; read-out: relative IC50, phospho-ERK, MEF-NRAS
HRAS = HRAS (Homo sapiens, UniProt P01112); assay: Cellular Phospho-ERK AlphaLISA assay, MEF-HRAS cells; type: cell-based, mouse; conditions: RAS-less MEFs expressing HRAS only; read-out: relative IC50, phospho-ERK, MEF-HRAS

Row | SMILES | IC50 (KRas G12D mutant) [nM] | IC50 (WT KRAS Amplification) [nM] | IC50 (KRAS G12V; 2 h incubation, read-out: relative IC50, reduction of phosphorylated ERK-1/2, cells expressing KRAS G12V) [nM] | IC50 (KRAS G12D) [nM] | IC50 (KRAS G12C) [nM] | IC50 (NRAS) [nM] | IC50 (HRAS) [nM] | selective inhibition preference for KRas G12V mutant over HRAS and NRAS (KRAS G12V; SW620 vs MEF-NRAS or MEF-HRAS Phospho-ERK AlphaLISA)
1 | CN(C)[C@H]1CCN(c2ncc3c4c(c(-c5c(F)ccc6sc(N)c(C#N)c56)c(F)c3n2)COC4)C1 (single isomer, unassigned; atropisomer 1) [Example 76A] | < 100 | < 500 | < 500 | < 500 |  |  |  | 
2 | C[C@@H](O)CN1CC2CCC(C1)N2c1nc(OCC2(CN3CCOCC3)CC2)nc2c(F)c(-c3ncc(F)c4sc(N)c(C#N)c34)c3c(c12)COC3 [Example 1, 2-Amino-7-fluoro-4-(5-fluoro-1-(3-((R)-2-hydroxypropyl)-3,8-diazabicyclo[3.2.1]octan-8-yl)-3-((1-(morpholinomethyl)cyclopropyl)methoxy)-7,9-dihydrofuro[3,4-f]quinazolin-6-yl)thieno[3,2-c]pyridine-3-carbonitrile] | < 100 |  |  | < 500 | < 500 | > 2000 | > 2000 | 
3 | N#Cc1c(N)sc2c(F)cnc(-c3c4c(c5c(N6C7CCC6CN(CCCO)C7)nc(OCC6(CN7CCOCC7)CC6)nc5c3F)COC4)c12 [Example 2, 2-Amino-7-fluoro-4-(5-fluoro-1-(3-(3-hydroxypropyl)-3,8-diazabicyclo[3.2.1]octan-8-yl)-3-((1-(morpholinomethyl)cyclo-propyl)methoxy)-7,9-dihydrofuro[3,4-f]quinazolin-6-yl)thieno[3,2-c]pyridine-3-carbonitrile] | < 100 | < 500 |  | < 500 |  | > 2000 | > 2000 | 
4 | C[C@@H](O)CN1CC2CCC(C1)N2c1nc(OCC2(CN3CCOCC3)CC2)nc2c(F)c(-c3c(F)ccc4sc(N)c(C#N)c34)c3c(c12)COC3 [Example 5, 2-Amino-5-fluoro-4-(5-fluoro-1-(3-((R)-2-hydroxypropyl)-3,8-diazabicyclo[3.2.1]octan-8-yl)-3-((1-(morpholinomethyl)cyclo-propyl)methoxy)-7,9-dihydrofuro[3,4-f]quinazolin-6-yl)benzo[b]thiophene-3-carbonitrile] | < 100 |  |  | < 500 |  | > 2000 | > 2000 | 
5 | C[C@@H](O)CN1CC2CCC(C1)N2c1nc(OCC2(CN3CCN(C)CC3)CC2)nc2c(F)c(-c3ncc(F)c4sc(N)c(C#N)c34)c3c(c12)COC3 [Example 6, 2-Amino-7-fluoro-4-(5-fluoro-1-(3-((R)-2-hydroxypropyl)-3,8-diazabicyclo[3.2.1]octan-8-yl)-3-((1-((4-methylpiperazin-1-yl)methyl)cyclopropyl)meth-oxy)-7,9-dihydrofuro[3,4-f]quinazolin-6-yl)thieno[3,2-c]pyridine-3-carbonitrile] | < 100 |  |  | < 500 |  | > 2000 | > 2000 | 
6 | C[C@@H](O)CN1CC2CCC(C1)N2c1nc(OCC2(CN3CC[C@H](F)C3)CC2)nc2c(F)c(-c3ncc(F)c4sc(N)c(C#N)c34)c3c(c12)COC3 [Example 7, 2-Amino-7-fluoro-4-(5-fluoro-3-((1-(((S)-3-fluoropyrrolidin-1-yl)methyl)cyclopropyl)meth-oxy)-1-(3-((R)-2-hydroxypropyl)-3,8-diazabicyclo[3.2.1]octan-8-yl)-7,9-dihydrofuro[3,4-f]quinazolin-6-yl)thieno[3,2-c]pyridine-3-carbonitrile] | < 100 |  |  | < 500 |  | > 2000 | > 2000 | 
7 | C[C@@H](O)CN1CC2CCC(C1)N2c1nc(OCC2(CN3CC[C@@H](F)C3)CC2)nc2c(F)c(-c3ncc(F)c4sc(N)c(C#N)c34)c3c(c12)COC3 [Example 8, 2-Amino-7-fluoro-4-(5-fluoro-3-((1-(((R)-3-fluoropyrrolidin-1-yl)methyl)cyclopropyl)meth-oxy)-1-(3-((R)-2-hydroxypropyl)-3,8-diazabicyclo[3.2.1]octan-8-yl)-7,9-dihydrofuro[3,4-f]quinazolin-6-yl)thieno[3,2-c]pyridine-3-carbonitrile] | < 100 |  |  | < 500 | < 500 | > 2000 | > 2000 | 
8 | C[C@@H](O)CN1CC2CCC(C1)N2c1nc(OCC2(CN3CCC(F)(F)CC3)CC2)nc2c(F)c(-c3ncc(F)c4sc(N)c(C#N)c34)c3c(c12)COC3 [Example 11, 2-Amino-4-(3-((1-((4,4-difluoropiperidin-1-yl)methyl)cyclopropyl)meth-oxy)-5-fluoro-1-(3-((R)-2-hydroxypropyl)-3,8-diazabicyclo[3.2.1]octan-8-yl)-7,9-dihydrofuro[3,4-f]quinazolin-6-yl)-7-fluorothieno[3,2-c]pyridine-3-carbonitrile] | < 100 |  |  | < 500 |  | > 2000 | > 2000 | 
9 | C[C@@H](O)CN1CC2CCC(C1)N2c1nc(OCC2(CN3CC4C(C3)C4(F)F)CC2)nc2c(F)c(-c3ncc(F)c4sc(N)c(C#N)c34)c3c(c12)COC3 (stereo partly drawn) [Example 12, 2-Amino-4-(3-((1-((6,6-difluoro-3-azabicyclo[3.1.0]hexan-3-yl)methyl)cyclopropyl)meth-oxy)-5-fluoro-1-(3-((R)-2-hydroxypropyl)-3,8-diazabicyclo[3.2.1]octan-8-yl)-7,9-dihydrofuro[3,4-f]quinazolin-6-yl)-7-fluorothieno[3,2-c]pyridine-3-carbonitrile] | < 100 |  |  | < 500 |  | > 2000 | > 2000 | 
10 | COCCN1CC2CCC(C1)N2c1nc(OCC2(CN3CC(OC)C3)CC2)nc2c(F)c(-c3ncc(F)c4sc(N)c(C#N)c34)c3c(c12)COC3 [Example 13, 2-Amino-7-fluoro-4-(5-fluoro-3-((1-((3-methoxyazetidin-1-yl)methyl)cyclopropyl)meth-oxy)-1-(3-(2-methoxyethyl)-3,8-diazabicyclo[3.2.1]octan-8-yl)-7,9-dihydrofuro[3,4-f]quinazolin-6-yl)thieno[3,2-c]pyridine-3-carbonitrile] | < 100 |  |  | < 500 |  | > 2000 | > 2000 | 
11 | COC1CN(CC2(COc3nc(N4C5CCC4CN(C[C@@H](C)O)C5)c4c5c(c(-c6ncc(F)c7sc(N)c(C#N)c67)c(F)c4n3)COC5)CC2)C1 [Example 14, 2-Amino-7-fluoro-4-(5-fluoro-1-(3-((R)-2-hydroxypropyl)-3,8-diazabicyclo[3.2.1]octan-8-yl)-3-((1-((3-methoxyazetidin-1-yl)methyl)cyclopropyl)meth-oxy)-7,9-dihydrofuro[3,4-f]quinazolin-6-yl)thieno[3,2-c]pyridine-3-carbonitrile] | < 100 |  |  | < 500 |  | > 2000 | > 2000 | 
12 | C[C@@H](O)CN1CC2CCC(C1)N2c1nc(OCC2(CN3CC(CF)C3)CC2)nc2c(F)c(-c3ncc(F)c4sc(N)c(C#N)c34)c3c(c12)COC3 [Example 15, 2-Amino-7-fluoro-4-(5-fluoro-3-((1-((3-(fluoromethyl)azetidin-1-yl)methyl)cyclopropyl)meth-oxy)-1-(3-((R)-2-hdyroxypropyl)-3,8-diazabicyclo[3.2.1]octan-8-yl)-7,9-dihydrofuro[3,4-f]quinazolin-6-yl)thieno[3,2-c]pyridine-3-carbonitrile] | < 100 |  |  | < 500 |  | > 2000 | > 2000 | 
13 | C[C@@H](O)CN1CC2CCC(C1)N2c1nc(N2CC[C@H](N(C)C)C2)nc2c(F)c(-c3ncc(F)c4sc(N)c(C#N)c34)c3c(c12)COC3 [Example 25A, 2-Amino-4-(3-((S)-3-(dimethylamino)pyrrolidin-1-yl)-5-fluoro-1-(3-((R)-2-hydroxypropyl)-3,8-diazabicyclo[3.2.1]octan-8-yl)-7,9-dihydrofuro[3,4-f]quinazolin-6-yl)-7-fluorothieno[3,2-c]pyridine-3-carbonitrile] | < 100 |  |  | < 500 |  |  |  | 
14 | [2H]C([2H])(Oc1nc(N2C3CCC2CN(C[C@@H](C)O)C3)c2c3c(c(-c4ncc(F)c5sc(N)c(C#N)c45)c(F)c2n1)COC3)C1(C([2H])([2H])N2CCOCC2)CC1 [Example 37, 2-Amino-7-fluoro-4-(5-fluoro-1-(3-((R)-2-hydroxypropyl)-3,8-diazabicyclo[3.2.1]octan-8-yl)-3-((1-(morpholinomethyl-d2)cyclopropyl)methoxy-d2)-7,9-dihydrofuro[3,4-f]quinazolin-6-yl)thieno[3,2-c]pyridine-3-carbonitrile] | < 100 |  |  | < 500 |  | > 2000 | > 2000 | 
15 | N#Cc1c(N)sc2c(F)cnc(-c3c4c(c5cnc(N6CCN7CCCC7C6)nc5c3F)COC4)c12 (centres unmarked) [Example 52A, 2-Amino-7-fluoro-4-(5-fluoro-3-(hexahydropyrrolo[1,2-a]pyrazin-2(1H)-yl)-7,9-dihydrofuro[3,4-f]quinazolin-6-yl)thieno[3,2-c]pyridine-3-carbonitrile] | < 100 |  |  |  |  |  |  | greater than 10 fold
